Measured data: PubChem BioAssay AID1224828 (NIAID, 2016)
Shown is one part, drawn at random, of about 17,000 deposited reagents. 762 of all reagents (4.5%) were called active. 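Active calls include both raised and lowered p65 entry, mostly lowered; wells with fewer than 50 cells lack a z-score.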 Raw values are not corrected between plates. Reagent sequences are not shown.

Assay: 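Knock-downs that increase or decrease LPS-induced p65 nuclear translocation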 (primary screen)
System: mouse RAW264.7 G9 macrophage reporter cells (GFP-p65, Tnf promoter-mCherry)
Reagent: siRNA pool against mouse genes, 100 nM
Timing: 2 days siRNA transfection, then 40 min LPS before fixation
Conditions: LPS (Salmonella minnesota R595) at 10 ng/ml
Detection: 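Microscopy ratio of nuclear to perinuclear-ring GFP-p65 signal, scaled to the plate median; gene score is the average of two replicate robust z-scores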
Direction: p65 translocation robust z-score: higher = more nuclear NF-kappaB p65 after LPS than the plate median; nuclear/cytoplasmic p65 ratio: higher = more nuclear NF-kappaB p65
Call rule: 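Called active when z exceeds 3.3 or falls under -1.56 (median of Tlr4 controls), giving activity score of at least 50; no calls for control wells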
Calls: active = hit (p65 shift raised or lowered); inactive = no clear change

gene symbol,PubChem SID,p65 translocation robust z-score,"nuclear/cytoplasmic p65 ratio, rep 1","nuclear/cytoplasmic p65 ratio, rep 2",low cell count flag,outcome
Kat7 (GeneID 217127),SID315478078,-2.39,1.39,0.981,enough cells to score,active
Mras (GeneID 17532),SID315467978,0.89,1.56,1.46,enough cells to score,inactive
Hspa1a (GeneID 193740),SID315477439,1.07,1.56,1.53,enough cells to score,inactive
Snu13 (GeneID 20826),SID315469473,,1.41,1.13,fewer than 50 cells per well; well left out of scoring,inactive
Or5k15 (GeneID 258999),SID315480607,1.54,1.84,1.74,enough cells to score,inactive
Nop10 (GeneID 66181),SID315472272,0.53,1.88,1.53,enough cells to score,inactive
Ccdc50 (GeneID 67501),SID315473068,,1.21,1.1,fewer than 50 cells per well; well left out of scoring,inactive
Slc25a29 (GeneID 214663),SID315477879,0.97,1.53,1.35,enough cells to score,inactive
Ube2e3 (GeneID 22193),SID315469901,-0.13,1.61,1.37,enough cells to score,inactive
Nkd2 (GeneID 72293),SID315474508,1.36,1.89,1.76,enough cells to score,inactive
Hnrnpu (GeneID 51810),SID315470913,0.03,1.42,1.56,enough cells to score,inactive
Hecw2 (GeneID 329152),SID315481512,0.04,1.43,1.53,enough cells to score,inactive
Lrrc72 (GeneID 71156),SID315474193,-0.15,1.34,1.41,enough cells to score,inactive
Ptgir (GeneID 19222),SID315468778,,1.34,1.36,fewer than 50 cells per well; well left out of scoring,inactive
Ms4a4d (GeneID 66607),SID315472536,-0.55,1.71,1.49,enough cells to score,inactive
Or5p72 (GeneID 258733),SID315480383,0.41,1.51,1.31,enough cells to score,inactive
Krt84 (GeneID 16680),SID315467696,-0.58,1.25,1.55,enough cells to score,inactive
Kcna7 (GeneID 16495),SID315467564,0.96,1.63,1.48,enough cells to score,inactive
Dnaja1 (GeneID 15502),SID315467321,1.5,1.72,1.5,enough cells to score,inactive
Pycr1 (GeneID 209027),SID315477572,-0.4,1.55,1.38,enough cells to score,inactive
Ypel1 (GeneID 106369),SID315476537,0.23,1.38,1.33,enough cells to score,inactive
Cnksr1 (GeneID 194231),SID315477447,-0.38,1.66,1.31,enough cells to score,inactive
Usp17lb (GeneID 381944),SID315481813,1.26,1.51,1.64,enough cells to score,inactive
Spata19 (GeneID 75469),SID315475130,2.31,1.7,1.29,enough cells to score,inactive
